Measurements as given in PubChem BioAssay AID504327 (National Center for Advancing Translational Sciences (NCATS), 2011).
Hit rate of the full screen: of about 390,000 compounds, about 820 (0.21%) were called active. Inconclusive means that the source gave no clear call. Such entries were picked first, then a sample of the others. Calls come from the whole dose curve; as a rule, active = well fitted inhibition curve with a large enough effect; inconclusive = small, poorly fitted or top-dose-only effect, or another doubt; inactive = no such curve, though single readings can be large or run the other way. Where the call is inconclusive, the potency comes from a doubtful curve fit.

Sequences of proteins named here, by UniProt entry; tags and fusion partners are left off.
UniProt Q92830, whole entry, looked up: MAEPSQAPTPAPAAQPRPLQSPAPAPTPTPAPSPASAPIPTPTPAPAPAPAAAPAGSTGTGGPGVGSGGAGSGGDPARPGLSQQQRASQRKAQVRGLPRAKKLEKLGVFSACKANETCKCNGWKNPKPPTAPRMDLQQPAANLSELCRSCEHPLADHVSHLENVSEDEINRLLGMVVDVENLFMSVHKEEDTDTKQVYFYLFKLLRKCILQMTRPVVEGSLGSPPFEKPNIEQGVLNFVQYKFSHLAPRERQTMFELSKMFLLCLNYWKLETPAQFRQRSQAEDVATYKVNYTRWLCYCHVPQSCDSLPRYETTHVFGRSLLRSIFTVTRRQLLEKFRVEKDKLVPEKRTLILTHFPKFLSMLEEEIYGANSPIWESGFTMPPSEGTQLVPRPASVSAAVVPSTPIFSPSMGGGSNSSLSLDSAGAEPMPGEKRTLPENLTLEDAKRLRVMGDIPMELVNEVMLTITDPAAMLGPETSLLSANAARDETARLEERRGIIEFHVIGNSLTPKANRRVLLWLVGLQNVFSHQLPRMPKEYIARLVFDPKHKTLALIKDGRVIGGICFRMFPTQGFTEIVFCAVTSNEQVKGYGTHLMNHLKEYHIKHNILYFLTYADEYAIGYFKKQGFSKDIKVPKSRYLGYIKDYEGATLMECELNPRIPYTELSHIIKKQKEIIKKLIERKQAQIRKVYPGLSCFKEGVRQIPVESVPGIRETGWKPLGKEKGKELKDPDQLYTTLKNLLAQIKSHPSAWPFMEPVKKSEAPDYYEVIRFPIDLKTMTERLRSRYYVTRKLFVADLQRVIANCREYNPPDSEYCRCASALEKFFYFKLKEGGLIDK

molecular target: Histone acetyltransferase KAT2A (Homo sapiens) (UniProt Q92830); experiment: qHTS Assay for Inhibitors of GCN5L2; conditions: GCN5L2 HAT assay, ThioGlo1 CoA-SH fluorescence; activity change, negative = inhibition: at 58.9 µM (top of the series) unless noted
In short: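 Compounds, pin-transferred from DMSO stocks, meet 20nM GCN5L2 for 15 min before the reaction begins with H3(1-25) peptide (75uM) and acetyl-CoA (70uM). Thiol-reactive ThioGlo1 reports CoA release over 20 min at room temperature.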
% is set by controls: 0 for no effect and ±100 for the full control effect; potency is the fitted concentration of half-maximal effect.

Structure (SMILES) | Potency | activity change, negative = inhibition
Cc1ccc(S(=O)(=O)N2CCCc3cc(NC(=O)c4c(F)cccc4F)ccc32)cc1 | inconclusive: 1 µM [inhibitor, full curve, poor fit] | 
Cc1ccccc1C(=O)Nc1ccc(C(=O)OCc2cc(=O)n3c4c(sc3n2)CCCC4)cc1 | inconclusive: 8.91 µM [inhibitor, single point] | 
O=C(CCN1C(=O)/C(=C\c2ccco2)SC1=S)Nc1ccc(C(=O)O)c(O)c1 | inconclusive: 39.8 µM [inhibitor, single point] | 
CC1CN(C(=O)c2cc3c(s2)CCC3)CC(C)O1 (stereo not given) | inconclusive: 0.355 µM [inhibitor, partial curve] | 
Cc1ccccc1CNC(=O)c1ccc2c(c1)N(Cc1ccccc1)CCS2 |  | inactive: -6.8%
O=C(NNC(=O)[C@H]1CC=CC[C@H]1C(=O)O)c1ccc(Cl)cc1Cl | inconclusive: 0.794 µM [inhibitor, single point] | 
O=C(Oc1ccc2c(c1)OCO2)c1cc2c(s1)CCC2 | inconclusive: 20 µM [inhibitor, single point] | 
Cn1c(=O)c(C(=O)CN2CCCc3ccccc32)c(N)n(Cc2ccccc2)c1=O |  | inactive: -21.1%
O=C(Nc1ccccc1)N1CCC2(CC1)CCN(C(=O)c1cccc(F)c1)CC2 |  | inactive: 8.06%
CCC(=O)OCC(=O)Nc1cc([N+](=O)[O-])ccc1Cl | inconclusive: 0.631 µM [inhibitor, single point] | 
N#Cc1c(NC(=O)CSc2ncnc3sccc23)oc(-c2ccco2)c1-c1ccco1 | inconclusive: 35.5 µM [inhibitor, single point] | 
O=S(=O)(c1ccc(S(=O)(=O)N2CCN(C/C=C/c3ccccc3)CC2)cc1)N1CCCC1 | inconclusive: 3.98 µM [inhibitor, single point] | 
O=C1NC(=O)/C(=C/c2ccc(-c3ccc(F)cc3O)o2)S1 | inconclusive: 31.6 µM [inhibitor, single point] | 
O=C(Nc1ccccc1)Nc1nc(-c2ccc(F)c(F)c2)cs1 | inconclusive: 7.08 µM [inhibitor, single point] | 
COC(=O)c1c(-c2ccc(C(C)(C)C)cc2)csc1NC(=O)C1C2CCC(O2)C1C(=O)O (stereo not given) | inconclusive: 39.8 µM [inhibitor, single point] | 
COC(=O)Cc1ccc(NC(=S)NCc2ccc(S(N)(=O)=O)cc2)cc1 | inconclusive: 20 µM [inhibitor, partial curve, poor fit] | 
S=C(NNC(=S)Nc1ccccc1)Nc1ccccc1 |  | inactive: -3.24%
COc1ccccc1COC(=O)Nc1c(C)nn(C)c1Cl | inconclusive: 6.31 µM [inhibitor, single point] | 
COc1ccccc1-n1c(CCn2nc(C)c(Br)c2C)n[nH]c1=S |  | inactive: -0.169%
CCc1cccc(CC)c1NC(=O)Cn1c(-c2ccc(F)cc2)noc1=O | inconclusive: 2 µM [inhibitor, single point] | 
CCOCC(=O)Nc1cc(Cl)c(OC)cc1OC |  | inactive: -0.947%
CN1CCCN=C1/C=C\c1cccs1 | active: 11.2 µM | 
O=C(COc1ccccc1)Nc1nnc(-c2ccc(F)cc2)o1 | inconclusive: 39.8 µM [inhibitor, single point] | 

Structure (SMILES) | Potency | activity change, negative = inhibition
CC(=O)NC(c1ccccc1)c1cc(Cl)c2cccnc2c1O (stereo not given) |  | inactive: 1.67%
CCOc1ccc(/C=N\NC(=O)CC(=O)NCCc2ccccc2)cc1 | inconclusive: 7.08 µM [inhibitor, single point] | 
Cc1ccc(C(=O)NCCCNC(=O)COc2ccc(C)c(C)c2)cn1 |  | inactive: -0.63%
Cc1ccc(S(=O)(=O)NCCC(=O)N2CCOCC2)cc1C |  | inactive: -18.8%
COc1cc(NC(=O)c2cc(C(C)C)on2)c(OC)cc1Cl | inconclusive: 39.8 µM [inhibitor, single point] | 
Cc1ccc(-c2csc3ncnc(NCCC(=O)O)c23)cc1 |  | inactive: -15.7%
CC(=O)c1sc2nc(CSc3nnnn3-c3ccccc3)[nH]c(=O)c2c1C | inconclusive: 17.8 µM [inhibitor, single point] | 
Cn1ccc(C(=O)N/N=C/c2ccncc2)n1 | inconclusive: 0.891 µM [inhibitor, full curve, poor fit] | 
CCC(=O)N1c2ccccc2[C@@H](N(C(C)=O)c2ccccc2)C[C@H]1C | inconclusive: 1 µM [inhibitor, full curve, poor fit] | 
COc1ccc(O)c(/C=N/c2nc3ccccc3n2C)c1 | inconclusive: 7.08 µM [inhibitor, single point] | 
COC(=O)Cc1cc(=O)oc2cc(OC)ccc12 | inconclusive: 39.8 µM [inhibitor, single point] | 
CCOc1ccc(C(c2c(O)nc(SC)n(C)c2=O)c2c(O)nc(SC)n(C)c2=O)cc1 |  | inactive: -13%
CC(C)C1CCC(C(=O)NC(Cc2ccccc2)C(=O)O)CC1 (stereo not given) | inconclusive: 39.8 µM [inhibitor, single point] | 
O=C(C1=C(O)C(=O)N(c2ncccn2)C1c1ccc(Cl)cc1)c1ccco1 (stereo not given) | inconclusive: 39.8 µM [inhibitor, single point] | 
CC(C)(C)c1ccc(-c2nc(SCC(=O)Nc3ccc(Cl)cc3)[nH]c(=O)c2C#N)cc1 | active: 35.5 µM | 
CCC(C)(O)c1[nH]c2ccc(C(F)(F)F)cc2c1C (stereo not given) | inconclusive: 0.794 µM [inhibitor, partial curve, poor fit] | 
COc1nc(-c2ccccc2)ccc1-c1noc(-c2ccco2)n1 | inconclusive: 11.2 µM [inhibitor, partial curve] | 
Cc1ccccc1CN1C(=O)c2ccccc2Sc2ccc(C(=O)NC3CCCC3)cc21 |  | inactive: -4.54%
CC(=O)Nc1ccc2c(c1)OCO2 | inconclusive: 0.794 µM [inhibitor, single point] | 
CCN(CC)C(=O)CSc1nc2ccc(NC(=O)CSc3nnc(COc4ccccc4C)n3C)cc2s1 | inconclusive: 22.4 µM [inhibitor, partial curve, poor fit] | 
C=CCn1c2ccccc2c2nnc(SCC(=O)NC(C(=O)OC)C(C)C)nc21 (stereo not given) | inconclusive: 5.01 µM [inhibitor, full curve, poor fit] | 
CCCCCSc1nc2c(cnn2-c2ccccc2)c(=O)[nH]1 |  | inactive: 0.615%

In the list so far, 2 have a cyano group:
Structure (SMILES) | Potency | activity change, negative = inhibition
N#Cc1c(NC(=O)CSc2ncnc3sccc23)oc(-c2ccco2)c1-c1ccco1 | inconclusive: 35.5 µM [inhibitor, single point] | 
CC(C)(C)c1ccc(-c2nc(SCC(=O)Nc3ccc(Cl)cc3)[nH]c(=O)c2C#N)cc1 | active: 35.5 µM | 
